According to PMC5343655:
These are yes or no findings as the source states them, for the method shown. Binding seen in cells or lysates may run through a third protein. Binding can be weak; no strength is given. Sequences can lack the tags named with a protein.

T1: IHNV NV protein fused N-terminally to a triple flag tag (3xfNVihnv) (infectious hematopoietic necrosis virus (IHNV) 32-87) (UniProt Q08455)
T1 sequence: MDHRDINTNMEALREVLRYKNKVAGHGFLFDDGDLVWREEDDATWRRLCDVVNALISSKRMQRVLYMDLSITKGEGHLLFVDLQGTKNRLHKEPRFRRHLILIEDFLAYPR

B1: IHNV NV protein fused N-terminally to a triple flag tag (3xfNVihnv) (protein, UniProt Q08455 1-111)
chain: T1 sequence

Assays:
[1] = biological target: T1, IHNV NV protein fused N-terminally to a triple flag tag (3xfNVihnv) (infectious hematopoietic necrosis virus (IHNV) 32-87); assay: co-IP; co-transfected EPC cells, lysed at 48 h (150 mM NaCl, 50 mM Tris/HCl pH 8, 20 mM EDTA, 0.5% NP-40); IP with anti-Flag M2 or anti-HA and protein A-Sepharose; immunoblot
[2] = biological target: epitope-tagged (HA) PPM1Bb from EPC cells (fathead minnow) (fathead minnow (Pimephales promelas)); assay: as above

Molecule | binding [1] | binding [2]
epitope-tagged (HA) PPM1Bb from EPC cells (fathead minnow) (enzyme) | binds | 
Salmon PPM1Bb (Atlantic salmon (Salmo salar)) (enzyme) | binds | 
PPM1Aa (enzyme) | no binding | 
B1 |  | binds
